Literature values, collected in paper PMC12658820, “Development of Tunable Rose Bengal-Based nanoGUMBOS as Potential Selective Chemotherapeutic Agents” (ACS Omega, 2025).

Test system: A549 cells
Design: method as in numbers not shown in text
Settings: literature comparison, ref numbers not shown in text; cited from earlier work

Which IC50 does the source give for `COc1cccc2c1C(=O)c1c(O)c3c(c(O)c1C2=O)C[C@@](O)(C(=O)CO)C[C@@H]3O[C@H]1C[C@H](N)[C@H](O)[C@H](C)O1` [Doxorubicin] here?
The IC50 was 4.4 µM.
